Structures can show the parent of a compound that is named as a salt. This is one part of the list. Single values are uncertain here, since repeats match poorly.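 Human kidney-derived cells stably carry a construct in which eight TEAD-binding elements drive luciferase, measured by luminescence in a drug-repurposing library screen. A hit is any compound whose signal exceeds the plate mean by more than five robust Z scores.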
System: HEK293A TEAD-LUC reporter
Test: TEAD-luciferase reporter activity (YAP activation), robust Z score vs plate; higher = stronger YAP/TEAD activation
Details: 24 h

Structure (SMILES)	TEAD-luciferase reporter activity (compound concentration: 200 nM)	TEAD-luciferase reporter activity (compound concentration: 2 uM)	TEAD-luciferase reporter activity (compound concentration: 10 uM)
O=C1N(Cc2ccc(C(F)(F)F)o2)c2ccccc2C12COc1cc3c(cc12)OCO3 (configuration not stated) [Funapide]	inactive: -1.98	inactive: -0.904	inactive: 0.0961
CC1(C)S[C@@H]2[C@H](NC(=O)[C@H](N)c3ccccc3)C(=O)N2[C@H]1C(=O)OC1OC(=O)c2ccccc21 (some centres not stated)	inactive: 0.753	inactive: -0.477	inactive: 1.79
CC(C)(C)NCC(O)COc1nsnc1N1CCOCC1 (stereo not drawn) [S(-)-Timolol maleate]	inactive: -2.6		inactive: -2.48
CC(C)(C)NCC(O)COc1nsnc1N1CCOCC1 (configuration not stated) [timolol, transdermal]		inactive: -0.629	
CCOCCn1c(CN2CCN(CCCCn3cccn3)CC2)nc2ccccc21	inactive: -0.692	inactive: -0.954	inactive: -1.46
C[C@H]1[C@H](C)CC[C@]2(C(=O)O[C@@H]3O[C@H](CO[C@@H]4O[C@H](CO)[C@@H](O[C@@H]5O[C@@H](C)[C@H](O)[C@@H](O)[C@H]5O)[C@H](O)[C@H]4O)[C@@H](O)[C@H](O)[C@H]3O)CC[C@]3(C)C(=CC[C@@H]4[C@@]5(C)C[C@@H](O)[C@H](O)[C@@](C)(CO)[C@@H]5[C@H](O)C[C@]43C)[C@H]12 [Madecassoside]	inactive: -2.39	inactive: -0.467	inactive: 2.3
COc1cc(O)c(C(=O)Nc2nc(C(=O)NCCN(C(C)C)C(C)C)cs2)cc1OC [Acotiamide hydrochloride hydrate]	inactive: -1.56	inactive: -1.03	inactive: 0.0226
CC(Cc1ccccc1)(NC(=O)CN)c1ccccc1 (racemic) [Acetamide, 2-amino-N-(1-methyl-1,2-diphenylethyl)-, (+/-)-]	inactive: 1.72		inactive: 0.215
O=C(O)C(=O)Cc1c[nH]c2ccccc12	inactive: -0.529	inactive: -0.739	inactive: -0.794
Nc1ncnc2c1ncn2[C@@H]1O[C@H](CO)C[C@@H]1F [Lodenosine]	inactive: -0.682	inactive: -0.162	inactive: 1.07
CN(C)CCC=C1c2ccccc2C(C)(C)c2ccccc21 [Melitracen Hydrochloride]	inactive: -0.69	inactive: -1.16	inactive: 2.74
COC(=O)N[C@H](C(=O)N1CCC[C@H]1c1ncc(-c2ccc(-c3ccc(-c4cnc([C@@H]5CCCN5C(=O)[C@@H](NC(=O)OC)C(C)C)[nH]4)cc3)cc2)[nH]1)C(C)C [daclatasvir]		inactive: -3.66	
COC(=O)N[C@H](C(=O)N1CCC[C@H]1c1ncc(-c2ccc(-c3ccc(-c4cnc([C@@H]5CCCN5C(=O)[C@@H](NC(=O)OC)C(C)C)[nH]4)cc3)cc2)[nH]1)C(C)C	inactive: -1.01		inactive: 1.01
CN1CCN(c2c(F)cc3c(=O)c(C(=O)O)c4scc5n4c3c2OC5)CC1	inactive: 0.124	inactive: 0.112	inactive: 0.00782
COc1ccc2c(c1)c(CC(=O)OC1OC(=O)c3ccccc31)c(C)n2C(=O)c1ccc(Cl)cc1 (configuration not stated)	inactive: 0.386	inactive: -0.513	inactive: -0.894
CCC(=O)O[C@]1(C(=O)COC(C)=O)CC[C@H]2[C@@H]3CCC4=CC(=O)CC[C@]4(C)[C@H]3[C@@H](O)C[C@@]21C [Hydrocortisone aceponate]	inactive: 2.87	inactive: 0.734	inactive: 0.0501
O=P(O)(O)C(O)(Cc1cnc2ccccn12)P(=O)(O)O [minodronic acid]	inactive: 0.384	inactive: -1.2	inactive: -0.309
CCNC(=O)NC(=O)C(C)OC(=O)c1c2c(nc3ccccc13)/C(=C/c1ccc(OC)c(OC)c1)CC2 (configuration not stated)	inactive: -1.42	inactive: -0.374	inactive: -1.36
CC(C)(C)OC(=O)N[C@@H](Cc1ccccc1)[C@@H](O)CC(Cc1ccc(CCCO)cc1)C(=O)N[C@H]1c2ccccc2C[C@H]1O (some centres not stated)	inactive: -0.0278	inactive: -0.86	inactive: -0.737
CCCCCCCCCCCCOc1ccc(NC(=N)N)cc1NC(=N)N	inactive: 2.08	inactive: -0.395	inactive: 0.549
CCCC(=O)Nc1ccc(OCC(O)CNCCc2ccc(OC)c(OC)c2)c(-c2ccno2)c1 (configuration not stated) [Ecastolol]	inactive: -0.348	inactive: -1.12	inactive: -1.41
CCOc1ccc(N2C(=O)c3cccnc3NC2=C(C)N(Cc2cccnc2)C(=O)Cc2ccc(OC(F)(F)F)cc2)cc1	inactive: 1.42	inactive: -1.22	inactive: -2.01
CCOC(=O)C1=Cc2cc(Cl)cc(Cl)c2OC1C(F)(F)F (configuration not stated)	inactive: -0.921	inactive: -0.732	inactive: -0.806
CCCC(=O)c1ccccc1OCCN(C(C)C)C(C)C [ketocaine]	inactive: 0.768	inactive: -0.91	inactive: 0.343
O=C(Cn1cnnn1)N[C@@H]1C(=O)N2C(C(=O)O)=C(CSc3nncs3)CS[C@H]12	inactive: -0.262	inactive: -1.18	inactive: 1.91

Look-ups from the results shown:
Entry of CC1(C)S[C@@H]2[C@H](NC(=O)[C@H](N)c3ccccc3)C(=O)N2[C@H]1C(=O)OC1OC(=O)c2ccccc21 (some centres not stated) under TEAD-luciferase reporter activity (compound concentration: 2 uM): inactive: -0.477
Entry of COc1ccc2c(c1)c(CC(=O)OC1OC(=O)c3ccccc31)c(C)n2C(=O)c1ccc(Cl)cc1 (configuration not stated) under TEAD-luciferase reporter activity (compound concentration: 2 uM): inactive: -0.513

Carrying on:

Structure (SMILES)	TEAD-luciferase reporter activity (compound concentration: 200 nM)	TEAD-luciferase reporter activity (compound concentration: 2 uM)	TEAD-luciferase reporter activity (compound concentration: 10 uM)
CCC(C)C(C#N)(CCN1CCCCC1)c1ccccc1 (configuration not stated)	inactive: 1.97	inactive: 1.2	inactive: -0.581
O=c1cc(C2Oc3cc(O)cc(O)c3CC2O)cc2c(C3Oc4cc(O)cc(O)c4CC3O)cc(O)c(O)c2c1O (configuration not stated) [Theaflavin]	inactive: 0.352	inactive: -1.4	inactive: -0.627
C(=C\c1ccccc1)/CN1CCN(C(c2ccccc2)c2ccccc2)CC1 [Cinnarizine]	inactive: -0.615	inactive: -0.142	inactive: 1.04
O=C(NCc1ccc(C(=O)O)cc1)NC[C@H]1CN(Cc2ccc(Cl)c(Cl)c2)CCO1	inactive: 0.987	inactive: -0.871	inactive: -0.587
C#CC1(O)CCC2C3CCc4cc(OC5CCCC5)ccc4C3CCC21C (configuration not stated) [quinestrol]	inactive: -1.48	inactive: -1.13	inactive: 1.59
Cc1cc2c(-c3ccccc3F)nc(N3CCNCC3)nc2s1	inactive: -0.125	inactive: 1.33	inactive: 0.292
CC(CN1c2ccccc2Sc2ccccc21)[N+](C)(C)C (configuration not stated) [thiazinamium chloride]	inactive: -1.51	inactive: 2.34	inactive: 0.603
Cn1nnnc1SCC1=C(C(=O)O)N2C(=O)[C@@H](NC(=O)[C@H](OC=O)c3ccccc3)[C@H]2SC1 [Cefamandole nafate]	inactive: -0.667	inactive: -0.464	active: 7.44
O=C(O)c1ccc(S(=O)(=O)N(Cl)Cl)cc1	inactive: -2.15	inactive: -0.882	inactive: -0.643
O=C(O)c1ccc(SSc2ccc(C(=O)O)cn2)nc1	inactive: -1.35	inactive: -1.09	inactive: 2.23
CCOc1ccc(C(=O)Nc2ccccc2OC(=O)c2ccc(OCC)cc2)cc1	inactive: -1.03	inactive: -0.16	inactive: 1.47
CC(C)(CCCCOc1ccc(OCCCCCn2ccnc2)cc1)C(=O)O	inactive: -1.44	inactive: 0.592	inactive: 0.89
CCC(=O)O[C@]1(C(=O)CCl)[C@@H](C)C[C@H]2[C@@H]3C[C@H](F)C4=CC(=O)C=C[C@]4(C)[C@@]3(F)[C@@H](O)C[C@@]21C [Halobetasol propionate]	inactive: 0.0328	inactive: 0.0683	inactive: 0.245
CC(C)(C)c1cc(-c2nnc(S)s2)cc(C(C)(C)C)c1O	inactive: -0.179	inactive: -1.15	inactive: -0.466
NC(=O)N/N=C1\C=Cc2ccccc2C1=O	inactive: -1.41	inactive: -1.57	inactive: 1.28
CCN(CC)CCNC(=O)N(CCS(=O)(=O)c1ccccc1)C(C)C [suricainide]	inactive: 0.0882	inactive: 1.5	inactive: -0.737
C/C(=N\OCc1sc(-c2ccc(C(F)(F)F)cc2)nc1C)c1ccc(OCC(=O)O)c(C)c1	inactive: -1.49	inactive: -0.474	inactive: 1.58
C[C@H](NC(=O)C(=O)Nc1ccccc1C(C)(C)C)C(=O)N[C@@H](CC(=O)O)C(=O)COc1c(F)c(F)cc(F)c1F [emricasan]	inactive: -1.74	inactive: 0.0546	inactive: -0.897
c1ccc2c(c1)OC[C@H](CNCCCOc1ccc3c(c1)OCO3)O2	inactive: -0.194	inactive: -1.8	inactive: 0.866
O=C(O)CCCn1nc(-c2c(-c3ccccc3)nn3ccccc23)ccc1=O	inactive: -0.838	inactive: 0.0716	inactive: -0.942
CNS(=O)(=O)c1cc(OC)c(OC)c(C(=O)NC[C@@H]2CCCCN2C)c1	inactive: -0.487	inactive: 1.15	inactive: -0.197
O=C1c2ccccc2S(=O)(=O)c2cc(-c3nnn[nH]3)ccc21 [Doxantrazole]	inactive: -1.48	inactive: 0.178	inactive: 0.878
O=C(Nc1c(Cl)cncc1Cl)c1ccc(OC(F)F)c(OCC2CC2)c1 [roflumilast]	inactive: -3.52	inactive: -1.43	inactive: -0.172
CC(C)NC(=O)C1CCCN(c2nc3ncccc3o2)C1 (configuration not stated)	inactive: 0.283		inactive: 4.35
CCCCCCCCCCCCOC(=O)c1cc(O)c(O)c(O)c1	inactive: -0.18	inactive: -0.0805	inactive: 2.44
